No constants are given. Whether binding was seen depends on the method and setting. Some results given as binding are weak or reduced against the parent protein; the word gives no strength.
Experiments:
Assay in all cases: fluorescence polarization
[1] = target: soluble recombinant α5β1 integrin (R&D Systems) (UniProt P08648)
[2] = target: purified soluble αvβ5 integrin (Millipore) (UniProt P06756)
[3] = target: purified soluble αvβ3 integrin (Millipore) (UniProt P06756)

By UniProt entry, the sequences of proteins in these tests, tags left out. Where a name states a change or a piece, a line headed by the entry shows the natural chain unless it says otherwise.
UniProt P08648: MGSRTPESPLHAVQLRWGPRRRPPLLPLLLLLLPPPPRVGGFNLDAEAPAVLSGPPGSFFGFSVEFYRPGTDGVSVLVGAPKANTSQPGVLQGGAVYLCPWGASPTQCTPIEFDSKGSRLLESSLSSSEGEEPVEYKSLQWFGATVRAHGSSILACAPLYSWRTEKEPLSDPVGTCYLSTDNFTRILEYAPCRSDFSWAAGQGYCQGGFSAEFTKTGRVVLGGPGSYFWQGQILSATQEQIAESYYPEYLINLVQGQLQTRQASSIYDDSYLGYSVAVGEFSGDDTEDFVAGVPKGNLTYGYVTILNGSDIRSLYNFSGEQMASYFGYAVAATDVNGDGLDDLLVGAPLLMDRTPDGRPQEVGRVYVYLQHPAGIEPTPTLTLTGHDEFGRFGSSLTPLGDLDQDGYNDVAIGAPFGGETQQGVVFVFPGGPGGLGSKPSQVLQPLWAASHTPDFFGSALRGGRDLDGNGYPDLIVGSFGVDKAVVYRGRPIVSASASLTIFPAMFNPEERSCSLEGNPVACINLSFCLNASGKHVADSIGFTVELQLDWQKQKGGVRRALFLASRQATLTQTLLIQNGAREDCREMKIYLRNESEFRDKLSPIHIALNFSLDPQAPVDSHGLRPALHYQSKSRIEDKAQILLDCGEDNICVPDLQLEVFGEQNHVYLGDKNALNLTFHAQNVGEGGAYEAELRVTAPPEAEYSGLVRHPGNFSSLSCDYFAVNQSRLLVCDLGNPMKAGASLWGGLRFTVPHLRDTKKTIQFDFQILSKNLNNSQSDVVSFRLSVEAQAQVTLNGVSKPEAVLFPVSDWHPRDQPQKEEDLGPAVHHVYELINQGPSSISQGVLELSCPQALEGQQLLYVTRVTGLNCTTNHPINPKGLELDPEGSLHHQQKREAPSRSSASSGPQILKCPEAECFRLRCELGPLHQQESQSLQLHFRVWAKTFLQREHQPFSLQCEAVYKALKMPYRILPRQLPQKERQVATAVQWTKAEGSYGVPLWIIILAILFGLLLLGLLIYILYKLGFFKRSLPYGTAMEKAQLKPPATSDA
UniProt P06756: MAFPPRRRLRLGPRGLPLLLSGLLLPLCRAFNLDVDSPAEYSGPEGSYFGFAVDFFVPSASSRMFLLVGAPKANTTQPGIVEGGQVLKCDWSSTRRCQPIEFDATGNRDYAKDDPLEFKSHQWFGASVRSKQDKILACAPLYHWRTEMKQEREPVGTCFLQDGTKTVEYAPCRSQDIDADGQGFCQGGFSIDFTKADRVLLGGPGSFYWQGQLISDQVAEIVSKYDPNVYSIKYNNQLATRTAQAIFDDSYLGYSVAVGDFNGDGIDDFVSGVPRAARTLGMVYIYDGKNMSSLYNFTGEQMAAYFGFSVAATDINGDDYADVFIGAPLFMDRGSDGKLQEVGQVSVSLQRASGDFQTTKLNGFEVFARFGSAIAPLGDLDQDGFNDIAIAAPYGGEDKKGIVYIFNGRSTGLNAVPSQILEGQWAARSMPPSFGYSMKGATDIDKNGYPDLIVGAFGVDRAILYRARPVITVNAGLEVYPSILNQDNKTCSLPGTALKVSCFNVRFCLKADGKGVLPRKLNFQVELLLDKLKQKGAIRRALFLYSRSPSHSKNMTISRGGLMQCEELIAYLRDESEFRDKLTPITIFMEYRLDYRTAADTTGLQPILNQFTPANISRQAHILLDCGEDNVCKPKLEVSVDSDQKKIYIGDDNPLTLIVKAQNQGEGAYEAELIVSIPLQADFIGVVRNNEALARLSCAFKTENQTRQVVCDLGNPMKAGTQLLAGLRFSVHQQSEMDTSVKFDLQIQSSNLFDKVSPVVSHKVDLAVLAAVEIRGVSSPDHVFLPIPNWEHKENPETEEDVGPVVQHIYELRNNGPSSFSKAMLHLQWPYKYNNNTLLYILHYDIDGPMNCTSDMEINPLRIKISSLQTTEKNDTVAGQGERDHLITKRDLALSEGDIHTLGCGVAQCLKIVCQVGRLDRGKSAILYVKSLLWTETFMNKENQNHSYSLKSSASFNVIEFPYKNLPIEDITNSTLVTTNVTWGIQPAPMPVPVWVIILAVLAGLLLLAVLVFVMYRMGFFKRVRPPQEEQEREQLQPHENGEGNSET

Measured: binding

B1: Contortrostatin (CN), native, purified from Agkistrodon contortrix contortrix venom (ligand)
chain: DAPANPCCDAATCKLTTGSQCADGLCCDQCKFMKEGTVCRRARGDDLDDYCNGISAGCPRNPFH
binds: all assays above

From patent US20110300579A1
